{
  "sequences": {"note": "The chains behind the UniProt entries cited, without tags or fusion partners. Where a name states a change or a piece, a line headed by the entry shows the natural chain unless it says otherwise.", "UniProt Q5ANA3": "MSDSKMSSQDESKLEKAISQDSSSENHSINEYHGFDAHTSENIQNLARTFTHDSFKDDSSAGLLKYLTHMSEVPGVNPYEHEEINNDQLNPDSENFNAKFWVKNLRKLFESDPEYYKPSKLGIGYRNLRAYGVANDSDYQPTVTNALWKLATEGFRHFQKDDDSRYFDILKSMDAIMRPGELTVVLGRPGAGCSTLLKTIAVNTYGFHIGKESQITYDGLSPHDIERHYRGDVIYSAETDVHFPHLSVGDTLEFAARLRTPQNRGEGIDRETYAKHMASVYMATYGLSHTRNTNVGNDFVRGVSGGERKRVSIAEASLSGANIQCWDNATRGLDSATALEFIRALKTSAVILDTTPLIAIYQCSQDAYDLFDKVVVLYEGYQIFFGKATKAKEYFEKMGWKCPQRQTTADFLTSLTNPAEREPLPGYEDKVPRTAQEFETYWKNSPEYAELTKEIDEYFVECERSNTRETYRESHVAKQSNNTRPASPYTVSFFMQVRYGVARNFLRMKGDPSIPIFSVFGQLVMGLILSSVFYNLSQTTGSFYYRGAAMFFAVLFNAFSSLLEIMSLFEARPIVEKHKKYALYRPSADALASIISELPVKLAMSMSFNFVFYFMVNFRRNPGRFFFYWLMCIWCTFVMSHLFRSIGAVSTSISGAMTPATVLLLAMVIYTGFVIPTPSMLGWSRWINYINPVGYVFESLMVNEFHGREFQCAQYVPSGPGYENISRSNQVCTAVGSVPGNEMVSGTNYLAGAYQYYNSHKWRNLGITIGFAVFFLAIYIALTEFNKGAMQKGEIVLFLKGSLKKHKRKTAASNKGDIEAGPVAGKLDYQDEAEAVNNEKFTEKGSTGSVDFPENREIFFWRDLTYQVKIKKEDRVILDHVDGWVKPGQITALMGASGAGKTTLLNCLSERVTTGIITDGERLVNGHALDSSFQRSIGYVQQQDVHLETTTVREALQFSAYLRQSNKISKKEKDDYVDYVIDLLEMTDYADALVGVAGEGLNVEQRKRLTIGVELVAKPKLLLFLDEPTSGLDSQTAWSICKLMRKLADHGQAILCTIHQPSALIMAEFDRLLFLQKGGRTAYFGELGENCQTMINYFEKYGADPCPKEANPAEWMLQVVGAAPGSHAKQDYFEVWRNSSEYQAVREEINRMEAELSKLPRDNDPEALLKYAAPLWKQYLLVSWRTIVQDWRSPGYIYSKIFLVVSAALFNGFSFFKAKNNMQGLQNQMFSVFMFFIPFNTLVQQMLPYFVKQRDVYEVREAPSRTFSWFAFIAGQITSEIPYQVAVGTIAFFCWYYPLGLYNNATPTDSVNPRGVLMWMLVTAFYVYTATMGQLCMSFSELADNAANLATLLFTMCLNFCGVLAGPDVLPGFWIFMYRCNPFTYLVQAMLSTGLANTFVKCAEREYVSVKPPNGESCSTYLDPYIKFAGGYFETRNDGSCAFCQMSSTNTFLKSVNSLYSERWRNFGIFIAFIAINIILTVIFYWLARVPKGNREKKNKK"},
  "source": "paper PMC8765293",
  "about": "“Inhibitor-Resistant Mutants Give Important Insights into Candida albicans ABC Transporter Cdr1 Substrate Specificity and Help Elucidate Efflux Pump Inhibition” (Antimicrobial Agents and Chemotherapy, 2022)",
  "biological_target": "wt Cdr1 ATPase activity (Candida albicans, UniProt Q5ANA3)",
  "experiment": "biochemical",
  "data": [
    {"smiles": "Clc1ccccc1C(c1ccccc1)(c1ccccc1)n1ccnc1", "note": "[CLT, clotrimazole]", "values": [
      {"measurement": "IC50", "value": 30, "unit": "µM"}
    ]}
  ]
}
